From PubChem BioAssay AID1347423 (Functional Genomics Laboratory (NCATS/FGL), 2020) come the findings set out here.

In all, about 52,000 sequences went through this assay and about 210 (0.4%) were called active.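 How the source made its calls: active means gene whose silencing raises cell survival under the drug, median off-target-corrected z-score across its silencing RNAs 2 or more; inactive means the rest.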 Some of the results follow.

This experiment is described as follows: Resistance to Poly (ADP-Ribose) Polymerase inhibitor: Gene Identification via Genome-wide siRNA Screen. The following applies: mouse BRCA2 R2336H ES cells, olaparib, CellTiter-Glo viability; stronger effect = higher value. A digest of the protocol:
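Mouse BRCA2 R2336H ES cells were reverse-transfected with siRNA (20 nM final), treated at 48 h with 500 nM olaparib, and read by CellTiter-Glo after 72 h. Scores: MAD-based z per siRNA, median per gene, seed off-target correction.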
As for GGACGAAUAGAAAUCAUAGTT against Cd84, the z-score was inactive: -0.939.
In the case of GGCUGACAGGAUUAUCACATT against Hibadh, the z-score was inactive: 1.22.
Regarding “GGCAGCACUACAAAACUUGTT against 1700045I19Rik”, the z-score is inactive: -0.107.
In the case of GGCUGUUCAUCAGCAGAUUTT against Nme6, the z-score was inactive: 0.444.
For the sequence “GGUUCAUUUCAGUUGGGUUTT against 2010110M21Rik”, the z-score is inactive: -1.32.
In the case of GCAAGCAUAGAGCAAAUAUTT against Gosr2, the z-score is inactive: -1.17.
Take “GCCGAAACCUCUAUAAGCUTT against 4833408A19Rik”: the z-score was inactive: 0.388.
As to GGAGUUCUUCACGCGUAACTT against G6pd2, the z-score was inactive: 0.52.
GGGUAUAACAAGACUACAATT against Dctn3: the z-score is inactive: -2.76.
Turning to “CCUGAGAUUUCCUAACAUCTT against B930067F20Rik”, the z-score was inactive: 0.731.
Then CGGAAUAAUCUUGUCUCCGTT against Alox12e, with inactive: 0.0251; and “GGGUUCUGGUGGCUAAGUUTT against 5730507A09Rik”, with inactive: -1.69; and GGCUCAUCAUUUACUUAAUTT against Slc22a3, with inactive: -0.156.
As to “GCACCUUCAGCUAUCUAACTT against 5730521E12Rik”, the z-score was inactive: 0.513.
Turning to GGAGACCUUUUUGAACCUGTT against Zfp472, the z-score was inactive: 0.0171.
Consider GGUGAAGCUUGAGAUACUATT against Gcnt1, for which the z-score was inactive: -0.464.
For GGAGAUGACCAAGUGGAAUTT against Pitpnm1, the z-score is inactive: 1.1.
Turning to GGGUAACAACCAUGUCCGUTT against Pspn, the z-score is inactive: 2.48.
Turning to “CCGUCUUCAAGACAGAUGCTT against 2410018G20Rik”, the z-score is inactive: 0.446.
In the case of GGGUGUCGAUUAUAACAGATT against Hnf4a, the z-score is inactive: -1.42.
As to CCGGAGGUUCCAACAAACUTT against Dlx1, the z-score was inactive: 2.32.
Regarding GGCCUAGUUCCAGUUAUGCTT against Olfr1093, the z-score is inactive: 1.04.
Then “GGAGUCAUGAAGACCAAUUTT against 1700018C11Rik”, with inactive: 0.368.
On to GGAGCUAUGCAUCAUUAAUTT against Srp14, for which the z-score is inactive: 1.4.
In the case of CGCGUACGACUUCUACAAATT against Hmgcs2, the z-score is inactive: 0.614.
With “GGGUUUCUUACUGAAGAAATT against B230380D07Rik”, the z-score is inactive: 0.724.
Regarding “GGUCUUUCAAGAGUUGAAATT against 2810405J04Rik”, the z-score was inactive: -0.157.
For the sequence GGCUCAGGACUUUGUCUACTT against Lhx4, the z-score is inactive: 0.346.
With CGGAUGCAAUCUGACCAGATT against Ubie, the z-score was inactive: 0.745.
In the case of CGAAUGCACAUCGUUACUGTT against Fbln2, the z-score was inactive: -0.375.
Consider GCCGUAGUAGACAAUCAUGTT against Ankrd28, for which the z-score was inactive: -0.00211.
GCUCAAUGCUACUAUAGACTT against Lif: the z-score is inactive: -0.453.
Then GGGUUCUUUCUGAGAGAAATT against Tnfrsf1a, with inactive: -0.99.
In the case of “GGAAGUCCACAAAUGAAGGTT against C130057E09Rik”, the z-score was inactive: -0.025.
For GGAUAGCAUGCUUCCUGAGTT against Rhbdl6, the z-score was inactive: -1.02.
With GGAAUCAACAAGGUUAUCATT against BC038479, the z-score was inactive: 1.37.
Consider GGAACAGAUGAAACCAUUATT against Psmc1, for which the z-score was inactive: -2.73.
Then CCAAUUGAUGUCAACAAGUTT against Atp7b, with inactive: -0.254; and CGGUUGAUGGAAAAAUACATT against Ppef2, with inactive: -1.39; and CGGGAAAUAAUUUUUGGUUTT against Snx4, with inactive: 0.62.
Take GGAAUUGGUUUCAUUCAUCTT against Impdh1: the z-score is inactive: -0.623.
Turning to GCUUGGGUAAUAGAAAUCATT against Gm316, the z-score is inactive: 1.21.
Then GGGAGCAUUGGCCAGAGUUTT against MOR135-11, with inactive: -0.0207; and “GCAACGUGUCUUUUCAAACTT against A630033H20Rik”, with inactive: 0.12.
As for GGUACCUGAGUCCAUCUCATT against Sntb1, the z-score is inactive: 0.0675.
In the case of GGAAAACAUGGAGAAGAAATT against Lars, the z-score was inactive: -0.799.
Turning to CCUUGCUACUCUGAUAACGTT against Tmeff1, the z-score is inactive: -0.647.
For the sequence “GGAUUAUCCCGACUAUAUGTT against 2610025M23Rik”, the z-score is inactive: -0.188.
Take GGGAGUGAUUCAACAUUACTT against Galk1: the z-score was inactive: -0.355.
Consider GCAACGAGUCUACGUCAUCTT against Pex14, for which the z-score was inactive: -0.0319.
With GGUACUAAAGUCAUGUUUGTT against Art2b, the z-score was inactive: 0.213.
Then GCGAGUCCUGCCUAUCGAUTT against Pnmt, with inactive: 0.713.
Under GGGCUACAUGAAAAUUCUGTT against Aicda stands inactive: -0.873; under GCGAGUACUUACUCUUCGUTT against Rpl3, inactive: -2.63.
Under “GGAGAUUCGCAUGCUCAUCTT against A130096K20” stands inactive: 0.0834; under GCUAGAUGAACGAGCGAACTT against Slc25a1, inactive: 0.0564.
For GCUGAAAUAUGUGAGAGCATT against Sdcbp, the z-score is inactive: 0.413.
Under “CCAAACAGGCUUUUUUCCUTT against 4631426E05Rik” stands inactive: 0.245; under CCUUAGGUACUCUAAGGAATT against D1Pas1, inactive: 0.23.
Regarding GGUAAACUAGACACGAAGCTT against Fgf23, the z-score was inactive: 0.495.
On to GGAAAAUGGCAGAAAUGAATT against Vps26, for which the z-score is inactive: -0.838.
Regarding CGGAAUUUCCACAGCUGUATT against Mir16, the z-score was inactive: -2.07.
In the case of GCACUUCAAUCCAGUGUCUTT against Pdgfd, the z-score was inactive: 3.74.
As for GCCAACCUGUACGAAAAAGTT against AI449175, the z-score was inactive: -0.922.
Turning to CCUUUUACCAAAACACACATT against Zfp148, the z-score was inactive: 0.583.
Turning to GGUGUUUGCAUUGUACAGGTT against Zfp598, the z-score is inactive: 0.8.
